# The supplement of paper PMC8326762, “A Small Molecule Inhibitor of Pex3–Pex19 Interaction Disrupts Glycosome Biogenesis and Causes Lethality in Trypanosoma brucei” (Frontiers in Cell and Developmental Biology, 2021)
# Where a name gives a salt, the structure may show the parent alone. The list shows a part of the results. This is a noisy data set.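 Yeast growth was measured as optical density at 600 nm. Two-hybrid strains grew without histidine, so growth depended on Pex3–Pex19 binding. A compound was trypanosome-selective if it reduced growth of the trypanosome-pair strain by over 65% and of the human-pair strain by under 65%.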
# Assays:
# [1] = system: Saccharomyces cerevisiae HF7c pdr5Δ; test: general growth inhibition of yeast HF7c pdr5Δ in -Leu -Trp medium, relative to DMSO; higher = stronger general growth inhibition; conditions: 100 µM; 24 h
# [2] = system: human PEX3-PEX19 interaction (yeast two-hybrid); test: growth inhibition of yeast two-hybrid strain reporting HsPex3-HsPex19 interaction, relative to DMSO; higher = stronger inhibition of human Pex3-Pex19 interaction / growth; conditions: 100 µM; 24 h; 3-aminotriazole 10 mM
# [3] = system: T. brucei Pex3-Pex19 interaction (yeast two-hybrid); test: growth inhibition of yeast two-hybrid strain reporting TbPex3-TbPex19 interaction, relative to DMSO; higher = stronger inhibition of T. brucei Pex3-Pex19 interaction / growth; conditions: 100 µM; 24 h
Compound,general growth inhibition [1] [%],growth inhibition [2] [%],growth inhibition [3] [%]
O=C(Nc1ccc2[nH]ncc2c1)C1CCC1 [Rhodblock 6],29.4,38.2,54.4
OC(CN1CCC(Cc2ccc(F)cc2)CC1)c1ccc(Cl)cc1 (stereo not given) [Eliprodil],22.4,18.8,46.3
CCN(c1nc(N)c(C(=O)NC(=N)N)nc1Cl)C(C)C [5-(N-Ethyl-N-isopropyl)amiloride],31.6,26.4,52.1
Cn1c(=O)c2nc[nH]c2n(C)c1=O [Theophylline],55.9,52.8,72.2
Oc1ccc(-c2nc(-c3ccc(F)cc3)c(-c3ccncc3)[nH]2)cc1,39.9,36.5,55.2
O=C(O)CCCCC1CCSS1 (racemic) [(±)-alpha-Lipoic Acid],34.5,40.2,61.3
CCn1cc(C(=O)O)c(=O)c2cc(F)c(N3CCNC(C)C3)c(F)c21 (stereo not given) [Lomefloxacin hydrochloride],53.2,51.5,68.9
CC(C)[N+](C)(CCOC(=O)C1c2ccccc2Oc2ccccc21)C(C)C [Propantheline bromide],41.8,50,58.1
O=C(O)Cc1c[nH]c2ccc(O)cc12 [5-Hydroxyindolacetic acid],5.21,3.73,41.2
"CCCCS(=N)(=O)CCC(N)C(=O)O (racemic) [DL-Buthionine-[S,R]-sulfoximine]",10.6,9.21,33.6
CN1CCN(C2Cc3ccccc3Sc3ccc(Cl)cc32)CC1 (racemic) [(±)-Octoclothepin maleate],20.6,11.7,48.6
O=C1CCC(c2ccc(-n3ccnc3)cc2)=NN1 [Imazodan],4.94,7.94,37.9
O=c1ccc2c(OCCCCc3ccccc3)c3ccoc3cc2o1 [Psora-4],43.6,34,50.5
CC#C[C@]1(O)CC[C@H]2[C@@H]3CCC4=CC(=O)CCC4=C3[C@@H](c3ccc(N(C)C)cc3)C[C@@]21C [Mifepristone],46.9,33.8,44.5
CCCNCC(O)COc1ccccc1C(=O)CCc1ccccc1 (stereo not given) [Propafenone hydrochloride],39,49.3,63.6
N#CC(C#N)=C(N)/C(C#N)=C/c1cc(O)c(O)c(O)c1 [Tyrphostin 51],44.7,38.8,59.3
CCN(CC)C(C)CN1c2ccccc2Sc2ccccc21 (stereo not given) [Ethopropazine hydrochloride],11.8,13.9,29.4
Cc1ccc([N+](=O)[O-])cc1S(=O)(=O)N(C)C,5.84,4.29,22.5
O=C(O)c1cccnc1C(=O)O [Quinolinic acid],59.1,24.1,65.9
NCCCNCCCCNCCCN [Spermine tetrahydrochloride],50.7,43.2,70.5
O=C(O)c1ccccc1Nc1ccccc1 [N-Phenylanthranilic acid],37.4,13.6,37
C=C(C)[C@@H]1CC=C(C(=O)O)CC1 [(-)-Perillic acid],69.6,55,77.8
CC1(C)CCC(NC(=O)[C@@H](N)CCC(=O)O)CC1,51.7,51.7,73.8
O=C1C(SCCO)=C(SCCO)C(=O)c2ccccc21,68.8,47.3,65.7
COCCc1ccc(OCC(O)CNC(C)C)cc1 (racemic) [(±)-Metoprolol (+)-tartrate],20.3,7.23,37.1

# Molecules from the list above that contain fluorine (3):
Compound,general growth inhibition [1] [%],growth inhibition [2] [%],growth inhibition [3] [%]
OC(CN1CCC(Cc2ccc(F)cc2)CC1)c1ccc(Cl)cc1 (stereo not given) [Eliprodil],22.4,18.8,46.3
Oc1ccc(-c2nc(-c3ccc(F)cc3)c(-c3ccncc3)[nH]2)cc1,39.9,36.5,55.2
CCn1cc(C(=O)O)c(=O)c2cc(F)c(N3CCNC(C)C3)c(F)c21 (stereo not given) [Lomefloxacin hydrochloride],53.2,51.5,68.9
